# From US20110046210A1, “SUBSTITUTED THIOPENECARBOXAMIDES AS IKK-BETA SERINE-, THREONINE-PROTEIN KINASE INHIBITORS” (CHROMA THERAPEUTICS LTD., priority 2008, published 2011)
# System: human whole blood
# Assay: LPS-stimulation of human whole blood, TNF-α release
# Format: cell-based
# Details: IC50 human whole blood / IC50 IKKβ enzyme
# Description: Whole blood was taken by venous puncture using heparinised vacutainers (Becton Dickinson) and diluted in an equal volume of RPMI1640 tissue culture media (Sigma). 100 μl was plated in V-bottomed 96 well tissue culture treated plates. 2 hours after the addition of the inhibitor in 100 μl of RPMI1640 media, the blood was stimulated with LPS (E coli strain 005:B5, Sigma) at a final concentration of 100 ng/ml and incubated at 37° C. in 5% CO2 for 6 hours. TNF-α levels were measured from cell-free supernatants by sandwich ELISA (R&D Systems #QTA00B). Human heparinised blood (17-IU/ml) was diluted with an equal volume of RPMI-1640 and then sub-aliquoted into 96 well microtitre wells (100 µl/well). Inhibitors of IKKβ that had been serially diluted in RPMI-1640 were added to the wells (100 µl/well) to give a range of final concentrations (5-10000 nM). After incubation for 2 hours at 37° C., TNF[…] production was stimulated for 6 hours at 37° C. by the addition of 10 µl of LPS (E Coli 055:B5) to give a final concentration of 100 ng/ml. Plates were then centrifuged for 3 minutes at 800 g and TNF[…] present in the supernatant then measured, using a QuantiGlo Chemiluminescent ELISA (R&D Systems). The human whole blood assay measures the ability of the compounds to inhibit the LPS stimulated production of TNF alpha in human blood cells mediated by IKKβ in a physiologically relevant setting.
row,Structure (SMILES),Ratio: Human whole blood/enzyme
1,"NC(=O)Nc1sc(-c2ccccc2)cc1C(N)=O [Compound I, reference compound]",100
2,"CC(C)(NCc1cccc(-c2cc(C(N)=O)c(NC(N)=O)s2)c1)C(=O)OC1CCCC1 [Example 1, Cyclopentyl N-{3-[4-carbamoyl-5-(carbamoylamino)-2-thienyl]benzyl}-2-methylalaninate]",1
